According to patent US10940129B2, “Method of treatment for reducing pain sensitization” (priority 2018, dated 2021):
Some entries share one result that the patent states for a list of compounds.

Tested on: chronic pain
Experiment: Self-reports of voluntary evaluators taking Protein-Allium (10 point pain scale, symptoms, side effects)
Details: shoulder neuropathy, subject two

NCC1(CC(=O)O)CCCCC1 [Gabapentin]
pain level, neuropathic pain: 1-2
